Reference: PubChem BioAssay AID2551 (National Center for Advancing Translational Sciences (NCATS), 2010)
The campaign covered roughly 310,000 compounds. About 17,000 (5.5%) were called active. This list was built around the results that the source calls inconclusive (neither active nor inactive); the mix of calls is not that of the screen. The call rests on the fitted dose curve; in most records, active means well fitted inhibition curve with a large enough effect; inconclusive means small, poorly fitted or top-dose-only effect, or effect the other way; inactive means no such curve, though single readings can be large or run the other way. A potency beside an inconclusive call is a rough fit, not a confirmed value.
Further: nearly all actives have a fitted effect of over 60% in size.
Potency means the concentration at half of the fitted maximal effect.

By UniProt entry, the sequences of proteins in these tests, tags left out. Where a name states a change or a piece, a line headed by the entry shows the natural chain unless it says otherwise.
UniProt P51450: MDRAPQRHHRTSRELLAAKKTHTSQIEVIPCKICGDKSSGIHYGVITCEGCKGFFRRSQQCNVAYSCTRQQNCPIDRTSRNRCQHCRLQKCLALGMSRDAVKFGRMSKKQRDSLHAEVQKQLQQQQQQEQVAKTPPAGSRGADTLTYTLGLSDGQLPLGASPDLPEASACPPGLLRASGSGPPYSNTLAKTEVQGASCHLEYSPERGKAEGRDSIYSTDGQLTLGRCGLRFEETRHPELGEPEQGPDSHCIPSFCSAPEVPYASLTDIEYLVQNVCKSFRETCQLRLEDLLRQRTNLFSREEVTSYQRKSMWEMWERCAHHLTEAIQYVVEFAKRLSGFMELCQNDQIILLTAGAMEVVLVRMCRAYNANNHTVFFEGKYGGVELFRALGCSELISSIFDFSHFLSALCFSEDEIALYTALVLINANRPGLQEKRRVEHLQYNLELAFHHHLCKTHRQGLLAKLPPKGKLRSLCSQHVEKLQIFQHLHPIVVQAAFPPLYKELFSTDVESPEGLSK

These compounds were tested against Nuclear receptor ROR-gamma (Mus musculus) (UniProt P51450) (assay: qHTS for inhibitors of ROR gamma transcriptional activity). Conditions: Drosophila S2 Gal4-RORgamma UAS-luciferase reporter, 20 h; series mostly up to 53.6 µM.
Summary of the method: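 A Gal4/UAS one-hybrid system in insect cells: metallothionein-promoter Gal4–ROR gamma fusion plus Photinus luciferase reporter. Copper sulfate 700 uM final, 20 hr ambient incubation, luminescent detection after 10 min with reagent.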
In the case of `Cc1onc(-c2c(F)cccc2Cl)c1C(=O)N1CCSCC1`, the Potency is reported as “inactive”. `Cc1ccc(N=C2NC(=O)/C(=C/c3cccs3)S2)cc1C` was tested, and the Potency was inconclusive: 22.4 µM [inhibitor, single point]. In the case of `c1ccc(-c2ncnc3nc4n(c23)CCC4)cc1`, the Potency is reported as “inactive”. `CC1=NN(C(=O)c2csc(C(C)C)c2)C(O)(C(F)(F)F)C1` (stereo unspecified) was tested, and the Potency was active: 5.01 µM. `Cc1ccc2oc(-c3cccc(NC(=O)c4cc(-n5cnnc5)ccc4Cl)c3)nc2c1` was tested, and the Potency was inconclusive: 17.8 µM [inhibitor, single point]. With `COc1ccc(C(NC(=O)C(C)C)c2ccc3cccnc3c2O)cc1` (stereo unspecified) the Potency was active: 2.24 µM. With `Cc1ccc(C(=O)CCS(=O)(=O)c2ccc(Cl)cc2)cc1` the Potency was active: 15.8 µM. With `CCCc1nc2c(=O)n(C)c(=O)nc-2n(C)n1` the Potency was active: 1.41 µM. With `O=C(c1ccco1)N1CCN(C(=O)c2ccc(COc3ccc4c(c3)CCC4)o2)CC1` the Potency was inconclusive: 12.6 µM [activator, single point]. With `COc1ccc(NC2=NC(=S)N(c3ccccc3C)C23CCCCC3)cc1` the Potency was active: 7.08 µM. For `COC(=O)[C@@]1(Cc2ccc(F)cc2)[C@@H]2[C@@H](CC(=O)[C@H]2CC(=O)C(=O)N(C)C)CN1C(=O)c1ccccc1`, the Potency was inconclusive: 35.5 µM [inhibitor, single point]. In the case of `COc1ccc(NC(=O)CN(Cc2ccccc2)Cc2ccccc2)cc1S(N)(=O)=O`, the Potency is reported as inconclusive: 10 µM [activator, partial curve]. `Cc1ccccc1NC(=S)N(CCN1CCOCC1)Cc1ccccc1F` was tested, and the Potency was active: 14.1 µM. In the case of `COc1ccccc1CN1CCCC(CN(CCN(C)C)C(=O)c2ccc(C)cc2)C1` (stereo unspecified), the Potency is reported as “inactive”. In the case of `COc1ccc(OC)c(NC(=O)CN(C)CCOc2ccc(Br)cc2)c1`, the Potency is reported as inconclusive: 15.8 µM [activator, single point]. With `Cc1scc(C(=O)N/N=C/c2ccc([N+](=O)[O-])o2)c1C` the Potency was active: 3.98 µM. For `Cn1c(C(=O)c2ccccc2)nc2ccccc21`, the Potency was “inactive”. In the case of `Cc1ccc(-c2nc3cccnc3s2)cc1NC(=O)C1c2ccccc2Oc2ccccc21`, the Potency is reported as active: 12.6 µM. With `CCOC(=O)c1ccc2nc(NC(NC(C)=O)(C(=O)OC)C(F)(F)F)sc2c1` (stereo unspecified) the Potency was “inactive”. In the case of `CC1=NN(C(N)=S)C(=O)C1N=Nc1cc(Cl)ccc1Cl` (stereo unspecified), the Potency is reported as active: 1.41 µM. In the case of `Cc1ccc(NC(=S)NC2CC3CCCC(C2)N3Cc2cccs2)cc1` (stereo unspecified), the Potency is reported as active: 4.47 µM. For `COc1cccc(S(=O)(=O)NCc2ccc(C(=O)N3CCN(c4ccccc4)CC3)cc2)c1`, the Potency was inconclusive: 14.1 µM [activator, partial curve]. With `COc1ccccc1[N+](=O)[O-]` the Potency was “inactive”. In the case of `O=C(NC(=S)Nc1ccccc1N1CCOCC1)c1ccc(-c2cc(Cl)ccc2Cl)o1`, the Potency is reported as active: 0.891 µM. With `CCC(C(=O)Nc1cc(Cl)ccc1OC)c1ccccc1` (stereo unspecified) the Potency was inconclusive: 14.1 µM [activator, partial curve]. `Cc1ccc(S(=O)(=O)N(C)C)cc1NC(=S)NC(C)CCC(C)C` (stereo unspecified) was tested, and the Potency was active: 12.6 µM. `Cc1ccc(CNC(=O)c2coc(=O)c3ccccc23)o1` was tested, and the Potency was inconclusive: 35.5 µM [inhibitor, single point]. In the case of `O=c1c2cnn(-c3ccccc3)c2ncn1Cc1ccccc1`, the Potency is reported as inconclusive: 8.91 µM [activator, partial curve, poor fit]. In the case of `Cn1c2ccccc2c(=O)c2ccc(C#Cc3ccccn3)cc21`, the Potency is reported as active: 11.2 µM. For `O=C(C1CCC(=O)N(C2CC2)C1)N1CCC(Oc2cccc(C(F)(F)F)c2)CC1` (stereo unspecified), the Potency was inconclusive: 11.2 µM [activator, partial curve]. For `CC(/C=N/NC(=O)CSc1n[nH]c(=O)[nH]c1=O)=C\c1ccccc1`, the Potency was “inactive”. `Cc1nnsc1C(=O)NC1CCCc2c1cnn2-c1ccccc1F` (stereo unspecified) was tested, and the Potency was “inactive”. `COc1ccccc1-c1ccc(=O)n(CC(=O)NCc2ccc3c(c2)OCO3)n1` was tested, and the Potency was inconclusive: 35.5 µM [activator, single point]. For `FC(F)(F)c1ccccc1-c1nccc(N2CCNCC2)n1`, the Potency was “inactive”. For `CN1CCN(NC(=O)CN2C(=O)/C(=C/c3c(Cl)cccc3Cl)SC2=S)CC1`, the Potency was inconclusive: 7.94 µM [inhibitor, partial curve]. For `O=C(O)C1Oc2cc3ccccc3cc2O1`, the Potency was “inactive”. For `CC1=NNC(=O)/C1=C\c1cn(-c2ccccc2)nc1-c1ccc(F)cc1`, the Potency was active: 4.47 µM. `CN(C)c1ccc(C(=O)c2ccc(N(C)C)c3ccccc23)cc1` was tested, and the Potency was inconclusive: 15.8 µM [activator, single point]. With `Cc1cccc(-n2c(O)c(C=Nc3cc(O)ccc3C)c3ccccc3c2=O)n1` the Potency was active: 11.2 µM. `c1csc(-c2nnc(-c3ccc(N4CCOCC4)cc3)o2)c1` was tested, and the Potency was inconclusive: 8.91 µM [inhibitor, partial curve]. With `CC1Cc2cc(S(=O)(=O)NCCC(=O)N(C)Cc3ccccc3)ccc2N1C(=O)C1CC1` (stereo unspecified) the Potency was “inactive”. `COc1ccc(CC(=O)Oc2ccc(C)cc2Br)cc1OC` was tested, and the Potency was inconclusive: 35.5 µM [activator, single point]. With `C=CCOc1c(Br)cc(CNn2c(C)n[nH]c2=S)cc1OCC` the Potency was inconclusive: 35.5 µM [inhibitor, single point]. `CCn1cc(C(=O)NC(=S)Nc2ccccc2Br)cn1` was tested, and the Potency was active: 7.08 µM. For `CCCCc1ccc(NC(=S)Nc2ccc(Nc3ccc(OC)cc3)cc2)cc1`, the Potency was active: 1.12 µM. In the case of `COc1ccc(/C=C2/CCCC(C(=O)C(F)(F)F)=C2O)cc1OC`, the Potency is reported as active: 17.8 µM. In the case of `CCCCc1cc(=O)oc2c(CN(C)C)c(O)ccc12`, the Potency is reported as “inactive”. `Cc1ccccc1Nc1nc(-c2sc(NC(=O)c3cccc(Cl)c3)nc2C)cs1` was tested, and the Potency was active: 12.6 µM. `CC(=O)N1CCCN(Cc2cn(-c3ccc(C)cc3)nc2-c2cccc(C)c2)CC1` was tested, and the Potency was inconclusive: 35.5 µM [inhibitor, single point]. For `N#C/C(=C/c1ccc(-c2ccc(S(N)(=O)=O)cc2)o1)c1nc2ccccc2s1`, the Potency was inconclusive: 12.6 µM [inhibitor, partial curve, poor fit]. In the case of `COc1ccc(Cc2nc3ccc(C(=O)N(C)C(C)c4ccon4)cc3o2)cc1` (stereo unspecified), the Potency is reported as inconclusive: 7.08 µM [activator, partial curve].
